# Some of the results follow.
# The chains behind the UniProt entries cited, without tags or fusion partners. Where a name states a change or a piece, a line headed by the entry shows the natural chain unless it says otherwise.
# UniProt Q99496: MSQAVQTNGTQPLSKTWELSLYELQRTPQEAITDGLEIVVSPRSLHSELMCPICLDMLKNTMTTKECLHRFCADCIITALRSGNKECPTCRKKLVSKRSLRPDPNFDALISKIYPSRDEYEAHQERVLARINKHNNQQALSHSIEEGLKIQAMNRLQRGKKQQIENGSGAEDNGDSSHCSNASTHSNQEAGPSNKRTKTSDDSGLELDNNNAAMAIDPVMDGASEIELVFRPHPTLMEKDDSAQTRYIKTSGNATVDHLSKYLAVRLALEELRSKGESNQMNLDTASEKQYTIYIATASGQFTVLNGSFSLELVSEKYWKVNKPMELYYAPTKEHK
# UniProt P60602: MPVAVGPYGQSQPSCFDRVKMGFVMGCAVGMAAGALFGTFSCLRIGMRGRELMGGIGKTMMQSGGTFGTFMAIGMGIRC
# UniProt Q5TBB1: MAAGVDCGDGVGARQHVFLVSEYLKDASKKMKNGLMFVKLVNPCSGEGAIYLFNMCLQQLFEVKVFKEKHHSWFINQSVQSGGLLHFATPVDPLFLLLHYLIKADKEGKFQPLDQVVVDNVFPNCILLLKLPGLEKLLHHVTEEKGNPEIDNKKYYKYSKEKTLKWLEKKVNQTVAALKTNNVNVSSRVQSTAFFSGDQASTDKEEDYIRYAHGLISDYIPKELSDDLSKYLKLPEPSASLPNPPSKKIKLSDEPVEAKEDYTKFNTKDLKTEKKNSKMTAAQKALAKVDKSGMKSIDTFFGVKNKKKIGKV
# UniProt Q00765: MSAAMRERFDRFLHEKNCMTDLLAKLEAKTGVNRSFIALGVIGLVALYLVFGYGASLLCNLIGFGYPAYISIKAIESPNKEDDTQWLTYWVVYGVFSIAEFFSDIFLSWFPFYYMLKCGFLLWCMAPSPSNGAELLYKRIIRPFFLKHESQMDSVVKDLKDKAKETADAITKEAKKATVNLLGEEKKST
# UniProt Q01196, whole entry: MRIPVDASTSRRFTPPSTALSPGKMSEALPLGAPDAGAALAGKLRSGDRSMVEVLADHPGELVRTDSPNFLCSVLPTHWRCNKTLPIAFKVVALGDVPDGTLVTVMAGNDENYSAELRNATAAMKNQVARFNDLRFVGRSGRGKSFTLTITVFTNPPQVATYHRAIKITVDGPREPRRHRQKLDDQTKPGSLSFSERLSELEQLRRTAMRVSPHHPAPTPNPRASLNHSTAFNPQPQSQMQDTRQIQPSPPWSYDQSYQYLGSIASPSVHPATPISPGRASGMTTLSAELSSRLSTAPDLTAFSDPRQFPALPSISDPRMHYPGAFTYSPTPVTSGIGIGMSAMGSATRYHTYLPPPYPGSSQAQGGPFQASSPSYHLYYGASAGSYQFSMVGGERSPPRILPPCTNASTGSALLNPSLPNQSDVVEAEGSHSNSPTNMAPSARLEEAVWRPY
# UniProt Q92600, whole entry: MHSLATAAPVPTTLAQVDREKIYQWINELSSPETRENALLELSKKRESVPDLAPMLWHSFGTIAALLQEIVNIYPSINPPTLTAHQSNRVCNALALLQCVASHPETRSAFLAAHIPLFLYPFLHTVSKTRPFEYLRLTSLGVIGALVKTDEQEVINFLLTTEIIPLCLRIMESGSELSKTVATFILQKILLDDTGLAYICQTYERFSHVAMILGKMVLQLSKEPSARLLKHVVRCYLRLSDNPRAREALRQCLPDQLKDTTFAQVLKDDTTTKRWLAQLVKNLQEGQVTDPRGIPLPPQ
# UniProt O94762: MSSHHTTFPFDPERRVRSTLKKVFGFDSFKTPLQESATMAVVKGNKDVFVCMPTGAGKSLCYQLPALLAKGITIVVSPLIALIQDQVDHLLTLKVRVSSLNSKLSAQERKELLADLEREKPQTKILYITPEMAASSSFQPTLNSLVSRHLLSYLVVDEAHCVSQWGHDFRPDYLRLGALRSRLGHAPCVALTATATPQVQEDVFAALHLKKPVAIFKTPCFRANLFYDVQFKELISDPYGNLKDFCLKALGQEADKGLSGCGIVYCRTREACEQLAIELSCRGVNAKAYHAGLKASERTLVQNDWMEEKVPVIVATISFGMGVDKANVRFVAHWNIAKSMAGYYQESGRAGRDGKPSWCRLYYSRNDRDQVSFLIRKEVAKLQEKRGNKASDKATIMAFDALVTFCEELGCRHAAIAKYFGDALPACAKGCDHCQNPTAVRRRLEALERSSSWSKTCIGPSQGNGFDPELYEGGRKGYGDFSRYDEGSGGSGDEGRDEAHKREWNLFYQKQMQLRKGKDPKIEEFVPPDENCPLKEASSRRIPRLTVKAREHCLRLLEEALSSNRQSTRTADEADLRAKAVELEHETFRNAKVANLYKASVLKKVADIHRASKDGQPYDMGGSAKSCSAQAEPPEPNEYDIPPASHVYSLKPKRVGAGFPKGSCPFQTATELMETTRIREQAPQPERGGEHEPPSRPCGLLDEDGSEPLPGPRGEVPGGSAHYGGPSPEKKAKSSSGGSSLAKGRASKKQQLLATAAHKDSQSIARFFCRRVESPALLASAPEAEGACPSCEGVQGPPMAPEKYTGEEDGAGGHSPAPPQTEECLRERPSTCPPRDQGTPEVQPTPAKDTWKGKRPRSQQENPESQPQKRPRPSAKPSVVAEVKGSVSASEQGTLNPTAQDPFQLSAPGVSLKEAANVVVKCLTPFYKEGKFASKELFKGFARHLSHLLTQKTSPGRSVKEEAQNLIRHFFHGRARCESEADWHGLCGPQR
# UniProt Q9UBS8: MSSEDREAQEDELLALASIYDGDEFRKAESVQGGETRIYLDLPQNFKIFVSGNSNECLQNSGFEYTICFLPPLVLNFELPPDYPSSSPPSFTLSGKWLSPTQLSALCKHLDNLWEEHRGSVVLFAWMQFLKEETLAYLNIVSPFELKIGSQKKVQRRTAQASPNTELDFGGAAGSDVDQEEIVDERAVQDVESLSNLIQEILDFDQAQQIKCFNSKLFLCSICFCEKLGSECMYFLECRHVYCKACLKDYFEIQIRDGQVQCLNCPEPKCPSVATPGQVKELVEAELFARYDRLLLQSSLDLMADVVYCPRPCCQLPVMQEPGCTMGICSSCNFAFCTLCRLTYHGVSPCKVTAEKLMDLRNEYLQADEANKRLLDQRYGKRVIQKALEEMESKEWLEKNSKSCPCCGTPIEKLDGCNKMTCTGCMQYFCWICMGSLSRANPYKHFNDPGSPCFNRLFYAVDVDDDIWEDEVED
# UniProt Q9UBE0: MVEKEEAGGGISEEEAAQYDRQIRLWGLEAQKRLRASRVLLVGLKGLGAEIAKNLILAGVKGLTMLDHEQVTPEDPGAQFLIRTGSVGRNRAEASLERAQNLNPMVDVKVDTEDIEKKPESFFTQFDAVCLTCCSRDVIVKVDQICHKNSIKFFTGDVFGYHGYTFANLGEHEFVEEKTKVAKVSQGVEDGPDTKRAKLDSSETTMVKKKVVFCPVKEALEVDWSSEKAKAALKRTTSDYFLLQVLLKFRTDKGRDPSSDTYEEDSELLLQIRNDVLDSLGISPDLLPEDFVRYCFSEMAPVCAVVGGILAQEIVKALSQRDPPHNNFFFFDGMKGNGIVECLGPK
# UniProt Q9H9A7: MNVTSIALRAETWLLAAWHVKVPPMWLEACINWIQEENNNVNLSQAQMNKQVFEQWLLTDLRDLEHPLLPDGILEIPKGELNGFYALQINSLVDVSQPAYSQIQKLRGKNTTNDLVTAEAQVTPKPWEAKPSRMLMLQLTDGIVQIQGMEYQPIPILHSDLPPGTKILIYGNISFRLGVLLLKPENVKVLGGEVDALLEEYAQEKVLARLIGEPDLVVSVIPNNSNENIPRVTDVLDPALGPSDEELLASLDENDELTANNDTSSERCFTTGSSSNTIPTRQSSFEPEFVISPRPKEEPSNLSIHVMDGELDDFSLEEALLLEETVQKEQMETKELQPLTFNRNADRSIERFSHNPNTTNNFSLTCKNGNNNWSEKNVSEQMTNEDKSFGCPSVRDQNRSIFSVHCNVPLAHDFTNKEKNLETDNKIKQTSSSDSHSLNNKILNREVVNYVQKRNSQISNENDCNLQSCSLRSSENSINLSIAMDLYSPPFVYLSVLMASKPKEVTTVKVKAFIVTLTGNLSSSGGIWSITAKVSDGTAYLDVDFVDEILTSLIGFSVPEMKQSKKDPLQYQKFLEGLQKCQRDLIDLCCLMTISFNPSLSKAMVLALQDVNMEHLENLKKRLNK
# UniProt Q14151: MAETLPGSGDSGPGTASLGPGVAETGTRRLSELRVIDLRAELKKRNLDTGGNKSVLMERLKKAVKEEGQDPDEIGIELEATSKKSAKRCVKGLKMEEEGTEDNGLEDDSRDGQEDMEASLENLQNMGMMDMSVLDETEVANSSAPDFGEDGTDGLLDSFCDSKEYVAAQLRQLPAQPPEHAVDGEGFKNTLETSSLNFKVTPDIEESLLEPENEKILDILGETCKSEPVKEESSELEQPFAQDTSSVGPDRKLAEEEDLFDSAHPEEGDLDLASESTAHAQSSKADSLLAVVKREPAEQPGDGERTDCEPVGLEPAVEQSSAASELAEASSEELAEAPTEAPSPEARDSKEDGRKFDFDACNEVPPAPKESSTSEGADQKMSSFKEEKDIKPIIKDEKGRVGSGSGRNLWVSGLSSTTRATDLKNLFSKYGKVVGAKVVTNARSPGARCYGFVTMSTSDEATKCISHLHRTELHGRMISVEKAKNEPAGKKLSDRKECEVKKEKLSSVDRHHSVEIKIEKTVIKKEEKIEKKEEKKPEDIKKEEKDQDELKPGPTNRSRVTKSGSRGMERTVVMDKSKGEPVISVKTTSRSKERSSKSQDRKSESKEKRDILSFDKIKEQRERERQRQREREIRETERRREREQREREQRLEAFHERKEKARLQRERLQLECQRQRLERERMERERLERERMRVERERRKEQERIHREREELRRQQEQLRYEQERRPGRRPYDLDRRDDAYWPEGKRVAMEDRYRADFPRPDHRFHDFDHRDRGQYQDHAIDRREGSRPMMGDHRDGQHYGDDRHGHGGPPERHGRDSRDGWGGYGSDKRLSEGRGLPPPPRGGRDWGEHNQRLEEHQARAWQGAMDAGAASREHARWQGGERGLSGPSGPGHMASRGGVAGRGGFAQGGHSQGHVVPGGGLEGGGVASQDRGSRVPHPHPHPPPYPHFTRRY
# UniProt Q14699: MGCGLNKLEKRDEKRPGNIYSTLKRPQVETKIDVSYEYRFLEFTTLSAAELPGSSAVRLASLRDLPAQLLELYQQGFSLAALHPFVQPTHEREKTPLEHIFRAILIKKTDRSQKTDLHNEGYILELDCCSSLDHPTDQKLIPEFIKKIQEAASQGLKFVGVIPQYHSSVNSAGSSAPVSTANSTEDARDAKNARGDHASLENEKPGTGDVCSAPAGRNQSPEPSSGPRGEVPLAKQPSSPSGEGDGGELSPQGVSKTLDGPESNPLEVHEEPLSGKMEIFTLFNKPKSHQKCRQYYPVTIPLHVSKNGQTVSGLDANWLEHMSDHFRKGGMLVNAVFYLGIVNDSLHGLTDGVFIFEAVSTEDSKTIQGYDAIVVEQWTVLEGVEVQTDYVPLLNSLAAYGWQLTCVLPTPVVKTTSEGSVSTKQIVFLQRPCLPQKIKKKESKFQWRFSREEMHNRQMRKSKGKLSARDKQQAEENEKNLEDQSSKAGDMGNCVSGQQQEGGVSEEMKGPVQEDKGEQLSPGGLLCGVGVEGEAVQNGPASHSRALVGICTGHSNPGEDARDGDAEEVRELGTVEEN
# UniProt Q9HC36: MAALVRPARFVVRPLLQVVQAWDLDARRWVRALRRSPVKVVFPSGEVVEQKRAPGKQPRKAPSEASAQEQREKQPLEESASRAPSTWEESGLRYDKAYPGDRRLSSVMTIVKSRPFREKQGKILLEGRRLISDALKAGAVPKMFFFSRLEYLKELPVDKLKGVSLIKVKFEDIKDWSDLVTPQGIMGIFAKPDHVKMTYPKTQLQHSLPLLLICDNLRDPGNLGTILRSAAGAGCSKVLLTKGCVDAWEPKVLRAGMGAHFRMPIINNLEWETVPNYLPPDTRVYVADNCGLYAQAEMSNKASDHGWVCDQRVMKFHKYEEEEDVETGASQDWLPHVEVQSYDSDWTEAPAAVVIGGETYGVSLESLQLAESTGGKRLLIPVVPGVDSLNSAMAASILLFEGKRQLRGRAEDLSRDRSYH
# UniProt Q96PM5: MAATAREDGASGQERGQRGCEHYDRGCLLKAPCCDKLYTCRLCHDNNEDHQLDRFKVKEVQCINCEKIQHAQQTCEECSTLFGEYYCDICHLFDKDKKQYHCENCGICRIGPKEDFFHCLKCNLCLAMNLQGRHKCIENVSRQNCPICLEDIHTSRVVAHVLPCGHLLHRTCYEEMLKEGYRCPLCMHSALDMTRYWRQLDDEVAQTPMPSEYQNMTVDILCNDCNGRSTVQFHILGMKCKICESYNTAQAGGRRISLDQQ
# UniProt Q8TA86: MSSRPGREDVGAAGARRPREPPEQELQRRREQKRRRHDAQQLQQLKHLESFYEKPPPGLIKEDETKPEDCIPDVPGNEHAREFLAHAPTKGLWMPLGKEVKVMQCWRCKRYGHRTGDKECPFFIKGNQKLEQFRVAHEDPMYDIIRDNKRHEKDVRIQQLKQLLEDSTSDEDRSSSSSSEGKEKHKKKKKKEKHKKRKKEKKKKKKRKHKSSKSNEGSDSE
# Compound: COc1ccc(Cn2ccc3ccc(C(=O)NO)cc32)cc1
# Assay: dose-dependent thermal stabilisation call (2D-TPP, DLPTP, 10% FDR) (binary (1 = stabilised)); higher = stabilised by the compound
# Settings: system: HL-60 intact cells; concentration range 0.04-10 µM
row,Target,dose-dependent thermal stabilisation call
1,RNF2 (UniProt Q99496),inactive: 0
2,ROMO1 (UniProt P60602),inactive: 0
3,RNASE3 (UniProt P12724),inactive: 0
4,RDH11 (UniProt Q8TC12),inactive: 0
5,SAFB (UniProt Q15424),inactive: 0
6,RPL7 (UniProt P18124),inactive: 0
7,RNASEH2B (UniProt Q5TBB1),inactive: 0
8,REEP5 (UniProt Q00765),inactive: 0
9,RNF167 (UniProt Q9H6Y7),inactive: 0
10,RUNX1 (UniProt Q01196),inactive: 0
11,RQCD1 (UniProt Q92600),inactive: 0
12,RSRC1 (UniProt Q96IZ7),inactive: 0
13,RECQL5 (UniProt O94762),inactive: 0
14,RPL5 (UniProt P46777),inactive: 0
15,RPL35A (UniProt P18077),inactive: 0
16,RNF14 (UniProt Q9UBS8),inactive: 0
17,SAE1 (UniProt Q9UBE0),inactive: 0
18,SAP30BP (UniProt Q9UHR5),inactive: 0
19,RMI1 (UniProt Q9H9A7),inactive: 0

row,Target,dose-dependent thermal stabilisation call
1,RPS25 (UniProt P62851),inactive: 0
2,RRP12 (UniProt Q5JTH9),inactive: 0
3,SAFB2 (UniProt Q14151),inactive: 0
4,RFTN1 (UniProt Q14699),inactive: 0
5,RUVBL2 (UniProt Q9Y230),inactive: 0
6,RNMTL1 (UniProt Q9HC36),inactive: 0
7,RPN1 (UniProt P04843),inactive: 0
8,RCHY1 (UniProt Q96PM5),inactive: 0
9,RTTN (UniProt Q86VV8),inactive: 0
10,SAPS3 (UniProt Q5H9R7),inactive: 0
11,RFT1 (UniProt Q96AA3),inactive: 0
12,RP9 (UniProt Q8TA86),inactive: 0
13,RPL30 (UniProt P62888),inactive: 0
14,RPRD2 (UniProt Q5VT52),inactive: 0
15,RIF1 (UniProt Q5UIP0),inactive: 0
16,RNF219 (UniProt Q5W0B1),inactive: 0
17,RPL34 (UniProt P49207),inactive: 0
18,RP3-402G11 5,inactive: 0
19,RPL15 (UniProt P61313),inactive: 0

# 2 entries picked at random from the list so far:
row,Target,dose-dependent thermal stabilisation call
14,RPRD2 (UniProt Q5VT52),inactive: 0
19,RPL15 (UniProt P61313),inactive: 0
